Assay in all cases: human ORF protein microarray
One data set has as its target TRAPPC2L (Homo sapiens) (UniProt Q9UL33). The conditions noted are these: 5' phosphate; Domain array: 20 mM Tris-HCl pH 7.4, 200 mM KCl, 0.2 mM EDTA, 0.05% NP40, 2 ug/ul heparin, overnight 4 C. ORF array: PBS pH 7.0 with RNase inhibitor, 100 ng RNA, 1 h.; recombinant protein; protein details: N-terminal GST-6xHis; label: internal DY647 at G18; letters put together from the description.

By UniProt entry, the sequences of proteins in these tests, tags left out. Where a name states a change or a piece, a line headed by the entry shows the natural chain unless it says otherwise.
UniProt Q9UL33, whole entry: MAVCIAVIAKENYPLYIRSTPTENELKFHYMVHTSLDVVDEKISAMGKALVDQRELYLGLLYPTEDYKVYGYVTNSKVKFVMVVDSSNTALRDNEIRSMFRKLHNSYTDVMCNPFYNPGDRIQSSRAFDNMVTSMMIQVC
UniProt Q9NRW1: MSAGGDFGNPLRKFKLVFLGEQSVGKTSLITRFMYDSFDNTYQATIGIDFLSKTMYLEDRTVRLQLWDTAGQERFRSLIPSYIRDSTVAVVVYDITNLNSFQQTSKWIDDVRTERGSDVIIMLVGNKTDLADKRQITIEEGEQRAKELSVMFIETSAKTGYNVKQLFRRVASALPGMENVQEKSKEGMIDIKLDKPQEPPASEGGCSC

For a further data set, the target named is T1, UNC45A (Homo sapiens) (UniProt Q9H3U1).
T1 sequence (looked up, limits assumed): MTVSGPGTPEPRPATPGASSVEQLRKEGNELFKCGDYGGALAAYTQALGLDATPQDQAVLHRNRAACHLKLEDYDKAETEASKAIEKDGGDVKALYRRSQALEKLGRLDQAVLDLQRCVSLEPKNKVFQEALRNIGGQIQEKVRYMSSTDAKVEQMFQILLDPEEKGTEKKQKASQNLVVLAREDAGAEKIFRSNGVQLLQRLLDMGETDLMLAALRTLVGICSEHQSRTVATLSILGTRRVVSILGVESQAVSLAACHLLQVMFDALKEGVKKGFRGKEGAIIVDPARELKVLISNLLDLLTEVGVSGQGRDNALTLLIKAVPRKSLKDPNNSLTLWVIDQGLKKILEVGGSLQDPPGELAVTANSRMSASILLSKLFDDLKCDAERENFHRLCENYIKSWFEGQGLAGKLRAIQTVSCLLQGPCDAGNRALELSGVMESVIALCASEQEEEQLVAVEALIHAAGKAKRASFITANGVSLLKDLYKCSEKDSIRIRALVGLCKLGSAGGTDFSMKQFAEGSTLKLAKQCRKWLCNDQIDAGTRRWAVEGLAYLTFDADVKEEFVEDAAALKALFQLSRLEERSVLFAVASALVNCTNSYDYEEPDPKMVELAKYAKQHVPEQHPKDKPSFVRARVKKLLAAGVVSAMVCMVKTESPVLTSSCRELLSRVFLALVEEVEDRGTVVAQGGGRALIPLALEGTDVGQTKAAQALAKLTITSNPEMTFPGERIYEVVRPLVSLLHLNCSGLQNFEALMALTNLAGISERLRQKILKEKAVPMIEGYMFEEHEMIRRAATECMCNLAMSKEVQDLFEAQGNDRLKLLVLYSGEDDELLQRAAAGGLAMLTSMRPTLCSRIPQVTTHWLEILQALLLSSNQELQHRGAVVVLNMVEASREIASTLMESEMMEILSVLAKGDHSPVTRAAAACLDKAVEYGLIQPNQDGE
The note with it: 5' phosphate; Domain array: 20 mM Tris-HCl pH 7.4, 200 mM KCl, 0.2 mM EDTA, 0.05% NP40, 2 ug/ul heparin, overnight 4 C. ORF array: PBS pH 7.0 with RNase inhibitor, 100 ng RNA, 1 h.; recombinant protein; protein details: N-terminal GST-6xHis; label: internal DY647 at G18; letters put together from the description.

Another data set concerns the target T2, ACO2 (Homo sapiens) (UniProt Q99798).
T2 sequence (looked up, limits assumed): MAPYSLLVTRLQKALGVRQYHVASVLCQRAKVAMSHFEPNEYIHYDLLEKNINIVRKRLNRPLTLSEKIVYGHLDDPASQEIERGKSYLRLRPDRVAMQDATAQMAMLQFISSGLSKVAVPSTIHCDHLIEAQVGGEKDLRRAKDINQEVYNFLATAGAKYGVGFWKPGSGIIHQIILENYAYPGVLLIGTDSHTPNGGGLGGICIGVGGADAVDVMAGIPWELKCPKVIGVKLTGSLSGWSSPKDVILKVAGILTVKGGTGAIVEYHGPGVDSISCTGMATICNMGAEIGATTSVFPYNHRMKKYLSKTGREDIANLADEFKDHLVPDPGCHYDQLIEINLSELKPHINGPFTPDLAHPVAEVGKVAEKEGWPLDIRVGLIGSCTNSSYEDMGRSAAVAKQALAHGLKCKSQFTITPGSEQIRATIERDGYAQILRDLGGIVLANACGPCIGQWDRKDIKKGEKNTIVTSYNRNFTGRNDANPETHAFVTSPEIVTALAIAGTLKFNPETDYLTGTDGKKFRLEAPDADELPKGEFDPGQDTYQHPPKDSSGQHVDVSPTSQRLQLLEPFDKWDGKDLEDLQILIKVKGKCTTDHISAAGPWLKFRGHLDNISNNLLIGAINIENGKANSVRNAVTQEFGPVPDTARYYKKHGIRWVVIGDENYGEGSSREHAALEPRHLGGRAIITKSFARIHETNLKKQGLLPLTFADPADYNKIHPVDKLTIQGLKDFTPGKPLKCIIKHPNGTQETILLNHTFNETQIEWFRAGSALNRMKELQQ
The note with it: 5' phosphate; amino-C6 U at position 18; Domain array: 20 mM Tris-HCl pH 7.4, 200 mM KCl, 0.2 mM EDTA, 0.05% NP40, 2 ug/ul heparin, overnight 4 C. ORF array: PBS pH 7.0 with RNase inhibitor, 100 ng RNA, 1 h.; recombinant protein; protein details: N-terminal GST-6xHis; label: internal Cy5 or DY647.

A further data set deals with T3, LYK5 (Homo sapiens) (UniProt Q7RTN6).
T3 sequence (looked up, limits assumed): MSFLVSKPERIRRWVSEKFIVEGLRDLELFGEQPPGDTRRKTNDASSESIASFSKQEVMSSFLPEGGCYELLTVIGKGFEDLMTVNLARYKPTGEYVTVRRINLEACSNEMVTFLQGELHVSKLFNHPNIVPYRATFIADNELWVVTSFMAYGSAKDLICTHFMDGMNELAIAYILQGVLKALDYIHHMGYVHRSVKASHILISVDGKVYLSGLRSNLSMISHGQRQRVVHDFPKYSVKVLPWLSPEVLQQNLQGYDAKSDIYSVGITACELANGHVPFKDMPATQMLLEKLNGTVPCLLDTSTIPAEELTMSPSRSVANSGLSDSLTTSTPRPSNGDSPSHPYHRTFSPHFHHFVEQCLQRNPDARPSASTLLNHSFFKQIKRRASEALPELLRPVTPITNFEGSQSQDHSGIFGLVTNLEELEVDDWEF
The note with it: 5' phosphate; amino-C6 U at position 18; Domain array: 20 mM Tris-HCl pH 7.4, 200 mM KCl, 0.2 mM EDTA, 0.05% NP40, 2 ug/ul heparin, overnight 4 C. ORF array: PBS pH 7.0 with RNase inhibitor, 100 ng RNA, 1 h.; recombinant protein; protein details: N-terminal GST-6xHis; label: internal Cy5 or DY647.

The next data set deals with RAB6B (Homo sapiens) (UniProt Q9NRW1). The note with it: 5' phosphate; amino-C6 U at position 18; Domain array: 20 mM Tris-HCl pH 7.4, 200 mM KCl, 0.2 mM EDTA, 0.05% NP40, 2 ug/ul heparin, overnight 4 C. ORF array: PBS pH 7.0 with RNase inhibitor, 100 ng RNA, 1 h.; recombinant protein; protein details: N-terminal GST-6xHis; label: internal Cy5 or DY647.
The next data set addresses T4, TXNL4A (Homo sapiens) (UniProt P83876).
T4 sequence (looked up, limits assumed): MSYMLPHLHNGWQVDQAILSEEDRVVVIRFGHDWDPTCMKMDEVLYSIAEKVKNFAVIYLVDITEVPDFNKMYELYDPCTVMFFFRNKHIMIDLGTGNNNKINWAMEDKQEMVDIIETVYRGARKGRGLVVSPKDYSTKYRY
The note with it: 5' phosphate; amino-C6 U at position 18; Domain array: 20 mM Tris-HCl pH 7.4, 200 mM KCl, 0.2 mM EDTA, 0.05% NP40, 2 ug/ul heparin, overnight 4 C. ORF array: PBS pH 7.0 with RNase inhibitor, 100 ng RNA, 1 h.; recombinant protein; protein details: N-terminal GST-6xHis; label: internal Cy5 or DY647.

For at least one entry, the source does not settle the construct or the ends of the probe. For part of these data: Protein sequences can lack the tags named with them.

Regarding “CAGUGCAAUGAUGAAAGGGCAU [miR-130b (internal labeling)]”, in the data set with TRAPPC2L (Homo sapiens), the binding result was “binds”.
As to “UAGCUUAUCAGACUGAUGUUGA [miR-21 (internal labeling)]”, the binding result with UNC45A (Homo sapiens) is “binds”.
On to “UGAGGUAGUAGGUUGUGUGGUU [let-7b (internal labeling)]”, for which the binding result with ACO2 (Homo sapiens), with LYK5 (Homo sapiens), with RAB6B (Homo sapiens) and in the data set with TXNL4A (Homo sapiens) was “binds” throughout.

(Values after article PMC11574364.)
